Values joined by “and” are separate entries in the source; they are usually repeats but may differ in a detail not shown here. Identical values can stand only once. About 7,500 (2.1%) of roughly 360,000 compounds were called active. This list was built around the results that the source calls inconclusive (neither active nor inactive); the mix of calls is not that of the screen. The call rests on the fitted dose curve; in most records, active means well fitted inhibition curve with a large enough effect; inconclusive means small, poorly fitted or top-dose-only effect, or effect the other way; inactive means flat fitted curve, though single readings scatter. Potencies beside an inconclusive call are fits to weak or partial responses and may not hold up. The source holds several records for some structures; these can differ, active in one and inactive in another.
Test: Nrf2 qHTS screen for inhibitors; further: nearly all actives have a fitted effect of over 60% in size
Conditions: A549 ARE-Fluc reporter, luciferase luminescence, 18-24 h; series mostly up to 46 µM
Procedure, shortened: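 A549 ARE_Fluc cells (5000/well, 5% FBS OPTI-MEM) pre-incubated 2 h, then treated with compounds 18-24 h at 37C/5% CO2 in concentration-response. CellTiter-Fluor viability read first; BugLite luciferase luminescence after 15 min at room temperature gives Nrf2 activity.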
Potency means the concentration at half of the fitted maximal effect.

Structure (SMILES) | Potency
S=C(NC1CCCCC1)NN(c1ccccc1)c1ccccc1 | inactive
COc1ccc(C2=[N+](C)CCn3cccc32)c(OC)c1 | inconclusive: 23.1 µM [falling, single point]
O=C(N/N=C/c1cc(Br)cc(Br)c1O)c1cccc(S(=O)(=O)N2CCOCC2)c1 | inconclusive: 6.51 µM [falling, single point]
C/C(=N\NC(=S)Nc1ccc(C)cc1)c1cc2ccccc2o1 | inconclusive: 20.6 µM [falling, partial curve]
CC(C(=O)N1CCCCC1)n1ncn2cccc2c1=O (configuration not stated) | inactive
CC1CC=CC2C1C(=O)N(Cc1ccccc1)C2c1ccc(-c2ccc(F)cc2)cc1F (configuration not stated) | inconclusive: 29.1 µM [falling, single point]
COC(=O)c1cc(Cl)c(NC(=O)/C=C/c2ccc(OC)c(OC)c2)cc1OC | inconclusive: 7.31 µM [falling, partial curve, poor fit]
O=C(NN1C(=O)c2ccccc2NC1c1ccc([N+](=O)[O-])o1)c1ccc([N+](=O)[O-])cc1 (configuration not stated) | inconclusive: 1.3 µM [falling, partial curve]
CCCC(=O)NC(=S)Nc1ccccc1C(F)(F)F | inactive
COc1cccc2c1nc(C)c1cc(C)oc12 | inconclusive: 16.4 µM [activator, partial curve, poor fit]
Cc1cc(C(F)(F)F)nn2cnnc12 | inconclusive: 29.1 µM [activator, single point]
COc1ccc(-c2oc3ncnc(NCCCN4CCOCC4)c3c2-c2ccc(OC)cc2)cc1 | inconclusive: 23.1 µM [falling, single point]
O=C(NCc1cccc(Br)c1)C1CCN(C(=O)c2sccc2-n2cccc2)CC1 | inactive
Cc1ccc(-n2nc(CO)c(C(=O)NCC(c3ccccc3)c3ccccc3)n2)cc1 | inactive
COc1ccc(-c2cn3c(C)c(C(=O)N4CCCc5ccccc54)sc3n2)cc1 | inconclusive: 29.1 µM [falling, single point]
CC(C)c1ccc(NC(=O)C2CCN(S(=O)(=O)c3ccc4c(c3)C(C)(C)C(=O)N4C)CC2)cc1 | inconclusive: 29.1 µM [falling, single point]
COc1ccc2oc(C(=O)OCC(=O)Nc3cc(S(=O)(=O)N4CCOCC4)ccc3OC)c(C)c2c1 | inactive
c1ccc2cc(OCc3nc4ccccc4[nH]3)ccc2c1 | inconclusive: 0.517 µM [activator, full curve, poor fit]
O=C1CCCC/C=C\C[C@H](CC(=O)N(CCO)Cc2ccccc2)C(=O)NC[C@H](c2ccccc2)O1 | inactive
FC(F)(F)c1cc(-c2ccco2)nc(NCCc2ccccc2)n1 | inconclusive: 32.6 µM [falling, single point]
Cc1nc2ccc3nc(NC(=O)c4ccco4)sc3c2s1 | inconclusive: 5.8 µM [activator, single point]

Structure (SMILES) | Potency
Nc1c(S(=O)(=O)c2cccs2)c2nc3ccccc3nc2n1CC1CCCO1 (configuration not stated) | inactive
O=C(NCc1c(F)cccc1F)c1cc(COc2c(F)cccc2F)on1 | inconclusive: 29.1 µM [activator, single point]
CC1=C(c2ccc(F)cc2)S(=O)(=O)NC1=NCc1ccccc1Cl | inconclusive: 29.1 µM [activator, single point]
COc1ccc(C(=O)n2c(-c3ccco3)nc3ccccc32)cc1 | inconclusive: 4.11 µM [falling, full curve, poor fit]
CCCOc1cc(NCc2ccccc2)c2ncn(C(C)C)c2c1 | inconclusive: 7.31 µM [falling, partial curve, poor fit]
COc1cccc(CNC(=O)CCn2c(=O)c3cccn3c3cccnc32)c1 | inactive and active: 1.16 µM
CC(=O)Nc1ccc(NC(=O)COC(=O)C2(c3ccc(Cl)cc3)CCCC2)cc1 | inconclusive: 18.4 µM [falling, partial curve]
CCOC1(C)OCC(=O)[C@]2(CCC3C4CCC5=CC(=O)C=CC5(C)C4C(=O)CC32C)O1 (some centres not stated) | inconclusive: 5.17 µM [falling, partial curve, poor fit]
O=C1NC(=O)C2C1C(c1cccs1)NN2Cc1ccccc1 (configuration not stated) | inconclusive: 29.1 µM [activator, partial curve, poor fit]
COc1ccc(-c2cn3nc(N4CCCC(C(=O)NCCCOC(C)C)C4)sc3n2)cc1 (configuration not stated) | inconclusive: 1.64 µM [activator, partial curve]
Cc1cccc(NC(=S)N(Cc2ccc(Br)cc2)Cc2ccc(C(=O)O)cc2)c1 | inconclusive: 32.6 µM [falling, single point]
CCCCOc1ccccc1NC(=O)c1ccco1 | inactive
CCC(Sc1ccc(C(=O)O)cc1)C(=O)O (configuration not stated) | inconclusive: 2.59 µM [activator, partial curve, poor fit]
O=C(Nc1nc2c(c(=O)[nH]1)CCCC2)C1CC1 | inconclusive: 29.1 µM [falling, single point]
N#CC(C#N)=Cc1ccc(-c2ccc(S(=O)(=O)N=C(N)N)cc2)o1 | inconclusive: 4.61 µM [falling, full curve, poor fit]
C/C(N)=C(/C#N)C(=O)COC(=O)c1ccccc1Cc1ccccc1 | inconclusive: 23.1 µM [falling, partial curve, poor fit]
Cc1ccc2c(c1)c1c(c(=O)n(-c3ccccc3C)c(=O)n1Cc1cccc(F)c1)n2C | inconclusive: 3.66 µM [activator, partial curve, poor fit]
O=C(Nc1cccc(Cl)c1)Nc1nnc(-c2ccncc2)s1 | inconclusive: 29.1 µM [falling, single point]
O=C(NCCCN1CCCC1=O)c1cccc(S(=O)(=O)Nc2ccc(Br)cc2)c1 | inconclusive: 14.6 µM [falling, partial curve, poor fit]
CCCCOc1ccc(C(=O)NCC(=O)NNC(=O)C2COc3ccccc3O2)cc1 (configuration not stated) | inactive
Cc1ccc(N=Nc2c(N)n[nH]c2N)cc1 | inconclusive: 11.6 µM [activator, partial curve]
